By UniProt entry, the sequences of proteins in these tests, tags left out. Where a name states a change or a piece, a line headed by the entry shows the natural chain unless it says otherwise.
UniProt Q4X158: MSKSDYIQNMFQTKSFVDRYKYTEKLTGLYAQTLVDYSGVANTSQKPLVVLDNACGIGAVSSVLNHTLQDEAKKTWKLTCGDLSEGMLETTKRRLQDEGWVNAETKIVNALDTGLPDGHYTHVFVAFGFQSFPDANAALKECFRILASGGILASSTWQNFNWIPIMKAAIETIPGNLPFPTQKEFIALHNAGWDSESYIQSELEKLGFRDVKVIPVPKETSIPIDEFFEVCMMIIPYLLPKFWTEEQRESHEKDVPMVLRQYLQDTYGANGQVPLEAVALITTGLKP
UniProt Q4WN17: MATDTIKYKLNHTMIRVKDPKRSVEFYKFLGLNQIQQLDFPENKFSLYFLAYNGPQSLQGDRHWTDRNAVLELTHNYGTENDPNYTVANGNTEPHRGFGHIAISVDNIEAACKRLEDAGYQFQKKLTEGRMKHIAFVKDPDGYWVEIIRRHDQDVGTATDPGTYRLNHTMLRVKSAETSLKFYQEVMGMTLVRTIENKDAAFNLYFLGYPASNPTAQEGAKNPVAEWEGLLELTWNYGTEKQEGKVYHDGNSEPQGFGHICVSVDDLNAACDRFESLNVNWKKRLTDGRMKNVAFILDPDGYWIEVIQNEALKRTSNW
UniProt Q4WXF4: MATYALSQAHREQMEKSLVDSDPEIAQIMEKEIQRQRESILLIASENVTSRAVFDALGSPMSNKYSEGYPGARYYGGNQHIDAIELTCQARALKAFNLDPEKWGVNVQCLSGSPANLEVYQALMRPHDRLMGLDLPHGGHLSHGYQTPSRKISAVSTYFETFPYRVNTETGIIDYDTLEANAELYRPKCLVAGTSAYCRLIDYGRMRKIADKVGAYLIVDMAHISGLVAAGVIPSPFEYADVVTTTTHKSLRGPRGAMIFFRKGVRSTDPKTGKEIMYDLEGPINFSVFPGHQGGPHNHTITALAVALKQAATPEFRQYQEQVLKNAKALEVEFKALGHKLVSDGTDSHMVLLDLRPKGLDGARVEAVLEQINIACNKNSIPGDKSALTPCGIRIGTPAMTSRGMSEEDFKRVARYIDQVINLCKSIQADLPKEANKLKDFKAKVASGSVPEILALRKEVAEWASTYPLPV
UniProt Q4WY97: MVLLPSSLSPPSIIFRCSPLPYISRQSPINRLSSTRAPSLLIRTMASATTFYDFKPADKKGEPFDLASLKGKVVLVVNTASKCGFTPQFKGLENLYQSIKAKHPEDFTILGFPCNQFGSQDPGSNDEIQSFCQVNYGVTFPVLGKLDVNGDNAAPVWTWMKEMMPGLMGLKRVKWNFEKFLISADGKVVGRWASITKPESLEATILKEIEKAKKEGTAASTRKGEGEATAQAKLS
UniProt Q4WM81: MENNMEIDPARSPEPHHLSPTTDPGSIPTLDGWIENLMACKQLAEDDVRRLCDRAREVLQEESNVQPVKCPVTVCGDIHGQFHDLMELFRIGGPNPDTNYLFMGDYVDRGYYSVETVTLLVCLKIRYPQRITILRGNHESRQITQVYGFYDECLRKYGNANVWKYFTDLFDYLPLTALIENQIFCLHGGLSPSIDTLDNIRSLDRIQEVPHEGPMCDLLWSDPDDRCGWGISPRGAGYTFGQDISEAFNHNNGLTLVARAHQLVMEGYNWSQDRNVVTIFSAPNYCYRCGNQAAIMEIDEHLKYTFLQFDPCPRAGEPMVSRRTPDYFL
UniProt Q4WI09: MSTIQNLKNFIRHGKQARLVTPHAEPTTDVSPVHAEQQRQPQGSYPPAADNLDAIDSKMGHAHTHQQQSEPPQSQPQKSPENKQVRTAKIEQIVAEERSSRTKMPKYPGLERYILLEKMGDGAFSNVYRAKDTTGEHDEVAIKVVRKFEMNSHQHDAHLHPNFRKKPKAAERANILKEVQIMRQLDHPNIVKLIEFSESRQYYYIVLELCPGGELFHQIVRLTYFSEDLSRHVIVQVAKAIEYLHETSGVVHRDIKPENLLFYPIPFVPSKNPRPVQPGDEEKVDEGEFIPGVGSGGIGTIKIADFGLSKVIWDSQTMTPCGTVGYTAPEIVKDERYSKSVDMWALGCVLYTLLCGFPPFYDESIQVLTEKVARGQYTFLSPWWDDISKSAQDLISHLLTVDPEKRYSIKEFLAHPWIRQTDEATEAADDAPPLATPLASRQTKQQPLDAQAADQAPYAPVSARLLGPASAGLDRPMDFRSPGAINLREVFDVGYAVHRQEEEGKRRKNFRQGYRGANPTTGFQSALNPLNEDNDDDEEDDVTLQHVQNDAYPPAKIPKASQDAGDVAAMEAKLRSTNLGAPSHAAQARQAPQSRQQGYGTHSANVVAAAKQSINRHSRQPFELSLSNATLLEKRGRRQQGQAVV
UniProt Q4WW00: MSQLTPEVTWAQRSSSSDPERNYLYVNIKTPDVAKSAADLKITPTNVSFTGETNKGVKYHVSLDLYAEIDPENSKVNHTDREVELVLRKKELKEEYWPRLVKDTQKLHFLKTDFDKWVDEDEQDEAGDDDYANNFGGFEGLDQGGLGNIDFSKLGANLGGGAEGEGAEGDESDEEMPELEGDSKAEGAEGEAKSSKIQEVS
UniProt Q4X0F2: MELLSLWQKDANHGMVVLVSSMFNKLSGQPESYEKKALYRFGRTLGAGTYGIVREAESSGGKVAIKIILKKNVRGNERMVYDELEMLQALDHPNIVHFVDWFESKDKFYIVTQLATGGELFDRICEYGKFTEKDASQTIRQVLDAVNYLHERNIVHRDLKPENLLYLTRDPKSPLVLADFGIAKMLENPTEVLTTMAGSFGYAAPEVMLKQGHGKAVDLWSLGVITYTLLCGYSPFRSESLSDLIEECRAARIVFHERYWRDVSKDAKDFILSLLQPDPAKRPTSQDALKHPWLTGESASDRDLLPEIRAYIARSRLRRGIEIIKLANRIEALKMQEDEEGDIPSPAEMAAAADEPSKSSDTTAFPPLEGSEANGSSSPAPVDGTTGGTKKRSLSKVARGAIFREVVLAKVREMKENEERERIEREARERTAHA

In article PMC10312964:

Assays:
[1] = molecular target: T1, GliT:GFP (Aspergillus fumigatus) (UniProt E9RAH5); assay: affinity purification with mass spectrometry
T1 sequence: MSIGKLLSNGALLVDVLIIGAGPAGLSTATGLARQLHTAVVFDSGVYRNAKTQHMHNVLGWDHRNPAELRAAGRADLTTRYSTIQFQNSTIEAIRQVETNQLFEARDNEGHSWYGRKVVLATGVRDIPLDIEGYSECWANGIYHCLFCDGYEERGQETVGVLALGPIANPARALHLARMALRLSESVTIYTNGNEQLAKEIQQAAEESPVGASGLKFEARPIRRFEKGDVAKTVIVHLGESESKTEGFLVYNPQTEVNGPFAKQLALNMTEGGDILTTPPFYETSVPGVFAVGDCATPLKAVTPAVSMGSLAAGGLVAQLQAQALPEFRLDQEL

[2] = molecular target: GtmA:GFP (Aspergillus fumigatus) (UniProt Q4X158); assay: affinity purification with mass spectrometry

Molecule: Lactoylglutathione lyase (Afu6g07940) (from UniProt Q4WN17) (enzyme)
- binding [1]: binds

Molecule: Serine hydroxymethyltransferase (Afu3g09320) (from UniProt Q4WXF4) (enzyme)
- binding [1]: binds
- binding [2]: binds

Molecule: Glutathione peroxidase; peroxiredoxin (Afu3g12270) (from UniProt Q4WY97) (enzyme)
- binding [1]: binds

Molecule: PphB, protein serine/threonine phosphatase activity (from UniProt Q4WM81) (enzyme)
- binding [2]: binds

Molecule: Calcium/calmodulin-dependent protein kinase (Afu2g03490) (from UniProt Q4WI09) (enzyme)
- binding [1]: binds
- binding [2]: binds

Molecule: Wos2, Hsp90 binding co-chaperone (from UniProt Q4WW00)
- binding [1]: binds

Molecule: Calcium/calmodulin-dependent protein kinase (Afu2g13680) (from UniProt Q4X0F2) (enzyme)
- binding [2]: binds

B1: GliN, methyltransferase, encoded in the putative gliotoxin biosynthetic gene cluster (enzyme, UniProt Q4WMJ1 1-282)
chain: MTVLPDSENGYLLNYEDQEKRRMNMQHDLIKTYMGKLILAPLPFDQPNLRVLDSGTFNGLWLEDASTLLQSPTLVGTDVSPTAFPAKRPPNTEFHVQSISDPWPTEWRDSFDLVHQKLVIACVPPDEGRQALYRLIDLAKPGTGWVQFTEGSLEHLTPEQRKQYPVLARFQSLVAEMLPHFRWNPRPGKLVRQWLEEYGLQEVQEKVMEIPIGAGNPDPKLGEMAKQNMLEVVSNFRTAATRLPDGTGIRAEDFDPILRDIKVEFETVGGILRFNTVWGRRP
- binding [1]: binds
- binding [2]: binds

B2: PtcB, type 2C protein phosphatase (PP2C) involved in dephosphorylation of SakA MAP kinase (enzyme, UniProt Q4WTH5 1-429)
chain: MRTCGTSSEGQDECCLYGLSAMQGWRISMEDAHAAVLDLQAKSTGGSEKPTDPDKRLAFFGVYDGHGGDKVALFAGENVHKIVAKQEAFAKGDIEQALKDGFLATDRAILEDPKYEEEVSGCTAAVSVISKNKIWVANAGDSRSVLGVKGRAKPLSFDHKPQNEGEKARISAAGGFVDFGRVNGNLALSRAIGDFEFKKSPELSPEQQIVTAYPDVTVHEVTDDDEFLVIACDGIWDCQSSQSVVEFVRRGIAAKQELYRICENMMDNCLASNSETGGVGCDNMTMIIIGLLNGKTKEEWYNQISERVANGDGPCAPPEYGKSEFRGPGIRNQFEETPDNYDLENDRSRGFSVRSGRIILLGDGTELIPEQNDEELFDQREENRDVTNHLQHDKAEETSTAANLSESPSSANKNSSGSGTEATEKSASS
- binding [2]: binds

B3: GliG, glutathione S-transferase encoded in the gliotoxin biosynthetic gene cluster (enzyme, UniProt A4GYZ0 1-240)
chain: MSERPSDLVVNRLVLFVVKGTATSTHNTVKPLILLEELGVPHDIYVVEKVSAPWFSEINPHKMVPAILDRSPDGRDTLRAWESTSTLMYIADAYDKDGTLGGRNVQERSEINNWLTLHTAALGPTAKYWLYFYKLHPEKLPKTIEKLRSNITVQYDILERRLNEPGQQYLALKDRPTIADIATLPFAMKSTAELFGLEFEKWPKLQEWSVRMGEREAVKRAWQRVAGFGHGEKEYGMLEA
- binding [2]: binds

No constants are given. Whether binding was seen depends on the method and setting. Binding seen in cells or lysates may run through a third protein. Here binding means that the protein was enriched with, or labelled near, the bait; the list need not be complete. For some of these results: Sequences can lack the tags named with a protein.
